Laboratory results from PMC6172197.
No constants are given. Whether binding was seen depends on the method and setting. Binding seen in cells or lysates may run through a third protein. Some binding calls cover weakened binding; strength is not graded here. Sequences can lack the tags named with a protein.

Chains of the proteins cited; added tags and fusions are not shown.
UniProt P61586: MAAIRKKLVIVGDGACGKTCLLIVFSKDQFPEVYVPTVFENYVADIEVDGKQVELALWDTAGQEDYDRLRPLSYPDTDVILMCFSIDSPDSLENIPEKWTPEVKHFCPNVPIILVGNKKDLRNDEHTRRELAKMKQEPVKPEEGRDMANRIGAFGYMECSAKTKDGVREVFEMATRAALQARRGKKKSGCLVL
UniProt O00327: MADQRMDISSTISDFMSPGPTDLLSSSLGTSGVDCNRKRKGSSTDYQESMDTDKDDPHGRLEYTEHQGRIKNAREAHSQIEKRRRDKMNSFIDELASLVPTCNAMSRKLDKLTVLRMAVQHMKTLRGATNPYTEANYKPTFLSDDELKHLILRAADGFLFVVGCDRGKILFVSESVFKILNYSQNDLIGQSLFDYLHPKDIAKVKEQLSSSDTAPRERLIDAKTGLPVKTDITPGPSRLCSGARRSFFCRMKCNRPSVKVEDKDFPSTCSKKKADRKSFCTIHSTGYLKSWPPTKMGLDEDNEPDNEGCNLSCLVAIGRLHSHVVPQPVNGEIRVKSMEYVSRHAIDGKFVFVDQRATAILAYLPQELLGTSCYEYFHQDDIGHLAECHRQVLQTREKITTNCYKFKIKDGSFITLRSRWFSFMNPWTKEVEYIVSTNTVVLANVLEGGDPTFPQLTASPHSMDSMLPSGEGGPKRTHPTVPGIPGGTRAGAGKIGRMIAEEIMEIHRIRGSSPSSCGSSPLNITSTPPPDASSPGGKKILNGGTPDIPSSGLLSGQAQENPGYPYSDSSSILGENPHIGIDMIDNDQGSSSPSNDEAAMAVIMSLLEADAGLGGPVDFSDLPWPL

B1: HA-tagged CLOCK, in vitro translated (CLOCK-pcDNA3.1-HA) (protein, UniProt O15516 1-846)
chain: MLFTVSCSKMSSIVDRDDSSIFDGLVEEDDKDKAKRVSRNKSEKKRRDQFNVLIKELGSMLPGNARKMDKSTVLQKSIDFLRKHKEITAQSDASEIRQDWKPTFLSNEEFTQLMLEALDGFFLAIMTDGSIIYVSESVTSLLEHLPSDLVDQSIFNFIPEGEHSEVYKILSTHLLESDSLTPEYLKSKNQLEFCCHMLRGTIDPKEPSTYEYVKFIGNFKSLNSVSSSAHNGFEGTIQRTHRPSYEDRVCFVATVRLATPQFIKEMCTVEEPNEEFTSRHSLEWKFLFLDHRAPPIIGYLPFEVLGTSGYDYYHVDDLENLAKCHEHLMQYGKGKSCYYRFLTKGQQWIWLQTHYYITYHQWNSRPEFIVCTHTVVSYAEVRAERRRELGIEESLPETAADKSQDSGSDNRINTVSLKEALERFDHSPTPSASSRSSRKSSHTAVSDPSSTPTKIPTDTSTPPRQHLPAHEKMVQRRSSFSSQSINSQSVGSSLTQPVMSQATNLPIPQGMSQFQFSAQLGAMQHLKDQLEQRTRMIEANIHRQQEELRKIQEQLQMVHGQGLQMFLQQSNPGLNFGSVQLSSGNSSNIQQLAPINMQGQVVPTNQIQSGMNTGHIGTTQHMIQQQTLQSTSTQSQQNVLSGHSQQTSLPSQTQSTLTAPLYNTMVISQPAAGSMVQIPSSMPQNSTQSAAVTTFTQDRQIRFSQGQQLVTKLVTAPVACGAVMVPSTMLMGQVVTAYPTFATQQQQSQTLSVTQQQQQQSSQEQQLTSVQQPSQAQLTQPPQQFLQTSRLLHGNPSTQLILSAAFPLQQSTFPQSHHQQHQSQQQQQLSRHRTDSLPDPSKVQPQ

Tests used:
[1] = target: FLAG-tagged RHOA, in vitro translated (RHOA-pcDNA3.1-FLAG) (UniProt P61586); assay: co-IP; CLOCK/RhoGDI/RHOA and RhoGDI/BMAL1/RHOA coexpressed in vitro with the TNT system in separate reactions, translated proteins mixed in 200 μl lysis buffer; Co-IP with corresponding antibodies
[2] = target: FLAG-tagged RHOA, in vitro translated (RHOA-pcDNA3.1-FLAG) (UniProt P61586); assay: co-IP; CLOCK/BMAL1/RHOA coexpressed in vitro with the TNT system (30 °C, 1.5 h), translated proteins mixed in 200 μl lysis buffer; Co-IP with antibodies against BMAL1, CLOCK or RHOA
[3] = target: HA-tagged BMAL1, in vitro translated (BMAL1-pcDNA3.1-HA) (UniProt O00327); assay: as above

Molecule	binding [1]	binding [2]	binding [3]
HA-tagged BMAL1, in vitro translated (BMAL1-pcDNA3.1-HA) (from UniProt O00327 1-626)	binds	binds	–
B1	binds	binds	binds
